In one assay the target is myc-tagged CSPα L116Δ (UniProt P60905). Kind of assay: SDS-PAGE and immunoblot of detergent-resistant oligomers; soluble CAD cell lysates (1% Triton X-100, 0.1% SDS lysis buffer) 24-72 h after transient transfection; blots with anti-myc, anti-flag or anti-CSPα. For orientation: Immunoblotting shows a protein as a band on a membrane.
The target in another assay is myc-tagged CSPα L115R (UniProt P60905). Described as above.
The target in assay [1] is endogenous CSPα of CAD cells (mouse (endogenous in CAD cells)) (UniProt P60904). The assay is described as above.
Assay [2] addresses T1, endogenous CSPα of human cortex (control) (human (endogenous in post-mortem cortex)), Q9H3Z4.
T1 chain: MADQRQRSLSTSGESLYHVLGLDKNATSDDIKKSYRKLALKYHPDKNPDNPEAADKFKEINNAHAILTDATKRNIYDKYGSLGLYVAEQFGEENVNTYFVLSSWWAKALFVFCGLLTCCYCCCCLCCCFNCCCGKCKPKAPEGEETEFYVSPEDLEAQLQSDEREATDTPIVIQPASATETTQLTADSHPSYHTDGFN
As to the kind of experiment: SDS-PAGE and immunoblot of detergent-resistant oligomers; crude synaptosomes (P2) of post-mortem human cortex solubilized in 0.5% Triton-X100/PBS at 4°C, then Laemmli sample buffer at 37°C for 1 hour; anti-CSPα blot, long exposure. Conditions: remark: other sources report otherwise.

Changes are numbered by the printed parent chain. Numbers in names are those of the source. No constants are given. Whether binding was seen depends on the method and setting. Some binding calls cover weakened binding; strength is not graded here. For some of these results: Where a sequence is shown, tags or fusion partners need not be part of it.

B1: myc-tagged CSPα L116Δ (protein, UniProt P60905 1-198)
chain: MADQRQRSLSTSGESLYHVLGLDKNATSDDIKKSYRKLALKYHPDKNPDNPEAADKFKEINNAHAILTDATKRNIYDKYGSLGLYVAEQFGEENVNTYFVLSSWWAKALFVVCGLTCCYCCCCLCCCFNCCCGKCKPKAPEGEETEFYVSPEDLEAQLQSDEREATDTPIVIQPASATETTQLTADSHPSYHTDGFN
As to B1, the binding result in the assay with myc-tagged CSPα L116Δ is reported as “binds”.

B2: myc-tagged CSPα L115R (protein, UniProt P60905 1-198)
chain: T1 chain with F112V, L115R
As for B2, the binding result in the assay with myc-tagged CSPα L115R was “binds”.

B3: endogenous CSPα of CAD cells (protein, UniProt P60904 1-198)
chain: T1 chain with F112V
As for B3, the binding result in assay [1] is listed as “binds”.

B4: endogenous CSPα of human cortex (control), Q9H3Z4 1-198 (protein)
chain: T1 chain
As for B4, the binding entry in assay [2] is listed as “binds”.
